± gives the standard deviation of the averaged measurements. Over roughly 3,800 compounds, “cell shape (eccentricity) Z-score vs DMSO control” has its median near 1.1; the lowest 2% begin near -4.7. The list shows a part of the results.
tested on: human monocyte-derived macrophages (M0); assay: cell shape (eccentricity) Z-score vs DMSO control; higher = more elongated, M2-like morphology; conditions: 20 µM; 24 h; macrophage state: M0 (M-CSF)
Experimental: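 Primary human monocyte-derived macrophages (M-CSF differentiated, pooled from 4 donors, 5000 cells/well in 384-well plates) were treated with each compound at 20 uM for 24 h, then fixed and stained with phalloidin/DAPI and imaged on an Opera Phenix (6 fields, about 1000 cells/well). Cell eccentricity was measured with CellProfiler, and a Z-score (t-test) was computed against 4 DMSO control wells in the same row. Negative values mean round (M1-like) cells and positive values mean elongated (M2-like) cells; the paper's hit cutoffs are Z <= -4 (M1) and Z >= 6 (M2). Scale: negative = round, M1-like.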

Compound | cell shape (Z-score)
CC(=O)O[C@@H]1CC[C@@]2(C)C(CC[C@@H](C)[C@]23Cc2c(O)cc4c(c2O3)CNC4=O)C1(C)C (some centres not stated) | 1.98
CC(C)=CC(O)C/C(C)=C/COc1ccc2ccc(=O)oc2c1 (configuration not stated) | -0.0704
Nc1c2ccccc2nc2ccccc12 | -1.93
COc1cc(OC)c(C(=O)CCCCN2CCC3(CC2)NC(=O)NC3=O)cc1NS(=O)(=O)c1ccc(C(F)(F)F)cc1 | -0.437
C[C@@H]1O[C@@H](Oc2cc(O)c3c(=O)c(-c4ccc(O)cc4)coc3c2)[C@H](O)[C@H](O)[C@H]1O | -1.74
COC(=O)C[C@H]1C(C)(C)C2(O)OC34CC2C(=O)[C@]1(C)C3CC[C@]1(C)C4=CC(=O)O[C@H]1c1ccoc1 (some centres not stated) | -1.12
Cc1cnc(NC(=O)C2C(=O)c3ccccc3S(=O)(=O)N2C)s1 (configuration not stated) | 3.07
CCC1(C)OC(=O)N(C)C1=O (configuration not stated) | -0.0962
O=C1CCC(O)c2cccc(O)c21 (configuration not stated) | 0.771
O=C(OOC(=O)c1ccccc1)c1ccccc1 | 2.6
C/C=C(\C)CC(/C=C(\C)C(O)C(C)/C=C(\C)C(O)C(C)/C=C/C(O)C/C=C/C(O)C(O)C(=O)O)C(=O)O (configuration not stated) | 1.45 ± 2.2
CC1(C)CC[C@]2(C(=O)O[C@@H]3O[C@H](CO)[C@@H](O)[C@H](O)[C@H]3O)CC[C@]3(C)C(=CCC4[C@@]5(C)CC[C@H](O[C@@H]6O[C@H](CO)[C@@H](O)[C@H](O[C@@H]7O[C@H](CO)[C@@H](O)[C@H](O)[C@H]7O)[C@H]6O[C@@H]6O[C@H](CO)[C@H](O)[C@H](O)[C@H]6O)C(C)(C)C5CC[C@]43C)[C@@H]2C1 (some centres not stated) | -0.266
OCC1OC(n2cnc3c(NC4CCCC4)nc(Cl)nc32)C(O)C1O (configuration not stated) | 1.75
CC1CN(CCCn2c3ccccc3c3ccccc32)CC(C)N1 (configuration not stated) | -3.55
CC(C)=CCc1c(O)ccc2c1OC(c1ccc(O)c(O)c1)CC2=O (configuration not stated) | 3.36
CC1(C)Oc2ccc(C#N)cc2[C@@H](N2CCCC2=O)[C@@H]1O | 3.26
CCN(CC)CC1CCCCN1CC(=O)N1c2ccccc2C(=O)Nc2cccnc21 (configuration not stated) | 2.24
OCc1c[nH]c2ccccc12 | 0.211
Cc1c(NC(=O)c2cccnc2)c(=O)n(-c2ccccc2)n1C | 7.96
COc1cc2c(NC3CCN(C(C)C)CC3)nc(C3CCCCC3)nc2cc1OCCCN1CCCC1 | 0.827
CCCCCCCCC(=O)NCc1cc(OC)c(O)cc1I | 0.93
NC(=O)NN=Cc1ccc(Oc2ccc(F)cc2)cc1 | 1.46
COc1cccc2c1C(c1ccc3c(c1O)C(=O)CC(C)C3O)OC2=O (configuration not stated) | -0.261
C=C(C)[C@@]12O[C@@H]1[C@@]1(C)C(=CC2=O)CC[C@@H](O)[C@@H]1C | -2.39

Sorted by length of the SMILES (largest number first): some entries from above.
Compound | cell shape (Z-score)
COc1cc2c(NC3CCN(C(C)C)CC3)nc(C3CCCCC3)nc2cc1OCCCN1CCCC1 | 0.827
COc1cccc2c1C(c1ccc3c(c1O)C(=O)CC(C)C3O)OC2=O (configuration not stated) | -0.261
Cc1cnc(NC(=O)C2C(=O)c3ccccc3S(=O)(=O)N2C)s1 (configuration not stated) | 3.07

Next results follow:

Compound | cell shape (Z-score)
C[C@@H]1CC2C3CCC4=CC(=O)C=C[C@]4(C)[C@@]3(F)[C@@H](O)C[C@]2(C)[C@@]1(O)C(=O)COP(=O)(O)O (some centres not stated) | -2.21
Cc1cccc(CCN2CCC(C(=O)c3ccc(NS(C)(=O)=O)cc3)CC2)n1 | 0.179
CCC[C@@H]1C[C@@H](C(=O)NC(C(C)Cl)[C@H]2O[C@H](SC)[C@H](O)[C@@H](O)[C@H]2O)N(C)C1 (some centres not stated) | 0.401
CC(COc1ccccc1)NC(C)[C@H](O)c1ccc(O)cc1 (some centres not stated) | 2.06
COc1cc2nccc(Oc3ccc(NC(=O)NC4CC4)c(Cl)c3)c2cc1C(N)=O | 1.42 ± 1
CCCCCCCCCC(=O)N[C@H](CN1CCOCC1)[C@H](O)c1ccccc1 | -2.01
CC(=O)O[C@H]1C[C@@H](OC(C)=O)C(C)(C)C2CC(=O)[C@]3(C)C(CC[C@@]4(C)[C@H](C(=O)O)OC(=O)C5OC543)[C@]21C (some centres not stated) | 1.06
C=C1CC[C@@H]2C(C)(C)C[C@@H](O)C[C@@]2(C)[C@@H]1CC/C(=C/C(=O)OC)COC(C)=O | -1.45
CC(=O)O[C@@H]1[C@@H](O)[C@H](C)O[C@@H](O[C@H]2[C@@H]3C=CO[C@@H](O[C@@H]4O[C@H](CO)[C@@H](O)[C@H](O)[C@H]4O)[C@@H]3[C@@]3(CO)O[C@@H]23)[C@@H]1OC(=O)/C=C/c1ccccc1 | 1.49
CCN(CC)CCNC(=O)c1cc(S(C)(=O)=O)ccc1OC | 0.506
CCN(CC)CC(=O)Nc1c(C)cccc1C | -0.534
COc1ccc([C@@H]2CC(=O)c3c(O)cc(O)cc3O2)cc1O | 0.807
COc1c(OC)c2occc2c2oc(=O)ccc12 | 5.35
CON=C(C(=O)NC1C(=O)N2C(C(=O)O)=C(CSc3nc(=O)c(=O)[nH]n3C)CSC12)c1csc(N)n1 (configuration not stated) | -0.265
C/C=C(/C(=C/C)c1ccc(O)cc1)c1ccc(O)cc1 | 4.71
CC1(C)C(=O)C=C[C@@]2(C)C1CC(=O)[C@]1(C)C2CC[C@@]2(C)[C@H](c3ccoc3)OC(=O)[C@H]3O[C@]321 (some centres not stated) | -1.42
OC(CCN1CCCCC1)(c1ccccc1)C1CCCCC1 (configuration not stated) | -1.27
COC(=O)Nc1nc2cc(C(=O)c3cccs3)ccc2[nH]1 | -1.29
CC(=O)CC(c1ccccc1)c1c(O)c2ccccc2oc1=O (configuration not stated) | 3.52
CCn1c(=O)[nH]c2ccccc21 | 0.543
C=C1C(=O)O[C@H]2C1CC[C@@](C)(O)[C@@H]1C[C@H](O)C(=C)[C@@H]12 (some centres not stated) | 0.528
CC(C)(C)CC(C)(C)c1ccc(O)c(-n2nc3ccccc3n2)c1 | -0.381
O=C1NS(=O)(=O)c2ccccc21 | 2.76

Reference: the supplement of paper PMC7858590
